Results are given in words; binding and its absence hold for the method and conditions named. Some results given as binding are weak or reduced against the parent protein; the word gives no strength.
What was measured:
[1] = biological target: extracellular region of TrkA protein (human) (UniProt P04629); test: ELISA, hybridoma supernatant
Mouse-TrKA protein = biological target: T1, Mouse-TrKA protein (mouse, UniProt Q3UFB7 34-420, limits assumed); test: ELISA, hybridoma supernatant
T1 construct: also called Mouse-TrKA receptor

Amino acid sequences for entries named in this document (tags omitted). A change or cut given only in a name is not applied to a line headed by its entry. Residues count along the entry.
UniProt P04629: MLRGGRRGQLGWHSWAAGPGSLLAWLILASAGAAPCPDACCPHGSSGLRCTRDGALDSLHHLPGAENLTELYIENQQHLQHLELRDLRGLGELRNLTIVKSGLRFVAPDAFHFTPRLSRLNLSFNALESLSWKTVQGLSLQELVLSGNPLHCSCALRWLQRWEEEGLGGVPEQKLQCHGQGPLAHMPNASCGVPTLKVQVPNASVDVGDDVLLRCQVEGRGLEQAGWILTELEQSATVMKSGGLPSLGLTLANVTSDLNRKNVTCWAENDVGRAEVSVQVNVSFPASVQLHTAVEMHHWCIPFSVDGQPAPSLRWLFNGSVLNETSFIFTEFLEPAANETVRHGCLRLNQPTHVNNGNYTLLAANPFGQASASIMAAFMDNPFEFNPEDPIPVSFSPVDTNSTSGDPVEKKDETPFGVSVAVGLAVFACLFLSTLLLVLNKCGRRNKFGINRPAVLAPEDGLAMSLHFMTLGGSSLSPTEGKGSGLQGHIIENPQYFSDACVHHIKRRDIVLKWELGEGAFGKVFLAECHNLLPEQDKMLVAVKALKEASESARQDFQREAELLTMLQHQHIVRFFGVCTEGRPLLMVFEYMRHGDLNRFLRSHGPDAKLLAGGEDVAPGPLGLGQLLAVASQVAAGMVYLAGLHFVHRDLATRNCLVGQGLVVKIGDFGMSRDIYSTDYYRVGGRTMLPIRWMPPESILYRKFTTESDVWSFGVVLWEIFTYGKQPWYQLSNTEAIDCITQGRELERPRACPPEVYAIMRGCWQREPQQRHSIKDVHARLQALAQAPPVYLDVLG
TrkA protein on HEK-293T-TrkA cells or NIH-3T3-TrkA cells: residues 33-796 of P04629
TrKA receptor protein coated in ELISA (Examples 11 and 16): residues 33-423 of P04629
UniProt Q3UFB7, residues 34-420: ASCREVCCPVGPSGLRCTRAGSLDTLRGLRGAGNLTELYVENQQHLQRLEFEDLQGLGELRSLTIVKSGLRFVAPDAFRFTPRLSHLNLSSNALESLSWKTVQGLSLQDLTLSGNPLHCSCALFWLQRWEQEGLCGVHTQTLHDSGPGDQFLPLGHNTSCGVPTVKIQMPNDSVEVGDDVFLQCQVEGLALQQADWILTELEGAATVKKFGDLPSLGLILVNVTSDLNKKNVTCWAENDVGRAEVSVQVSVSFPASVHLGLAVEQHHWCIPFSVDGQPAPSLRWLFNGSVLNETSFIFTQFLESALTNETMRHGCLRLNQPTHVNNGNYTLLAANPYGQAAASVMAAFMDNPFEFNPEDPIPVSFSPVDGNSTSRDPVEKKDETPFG

[2] = biological target: extracellular region of TrkA protein (human) (UniProt P04629); test: competition ELISA: hybridoma supernatant against biotinylated NGF binding to the TrkA extracellular region; OD450 is the NGF signal
[3] = biological target: TrkA protein on HEK-293T-TrkA cells or NIH-3T3-TrkA cells (human) (UniProt P04629); test: flow cytometry competition: hybridoma supernatant against biotinylated NGF binding to HEK-293T-TrkA cells; % parent is the NGF signal
[4] = biological target: extracellular region of TrkA protein (human) (UniProt P04629); test: ELISA screening of hybridoma supernatants on TrkA extracellular region
[5] = biological target: T2, TRKA protein with a histidine tag (human, UniProt P04629 33-423, limits assumed); test: BLI (Fortebio Octet RED96)
T2 construct: it is put last here only for order; also called TRKA (50 µg/ml, 75 kDa, provided by HEC Labs); not shown: histidine tag

[6] = biological target: TrKA receptor protein coated in ELISA (Examples 11 and 16) (human) (UniProt P04629); test: ELISA
[7] = biological target: TrKA receptor protein coated in ELISA (Examples 11 and 16) (human) (UniProt P04629); test: ELISA, antibody titrated 0.019-20 µg/mL on TrKA
[8] = biological target: Mouse-TrKA protein (mouse) (UniProt Q3UFB7); test: competition ELISA: antibody against biotinylated Mouse-NGF binding to Mouse-TrkA; negative control IgG4 (m31)
[9] = biological target: Mouse-TrKA protein (mouse) (UniProt Q3UFB7); test: ELISA

Measured: binding

B1: mouse monoclonal antibody produced by hybridoma clone 23E12 (antibody, V domains shown)
VH: QVQLQQSGAELVRPGTSVKISCKASGYAFTNYWLGWMKQRPGHGLEWIGDFYPRTGNTFYNENFKGKVTLTADKSSNTAYMQLSSLTSEDSAVYLCARAGTGFDYWGQGTTLTVSS
VL: SIVMTQSPKSMSMSVGERVTLSCKASENVGGYVSWYQQKPDQSPKLLIYGASSRHTGVPDRFTGSGSETDFTLTISSVQAEDLAAYHCGQNYIYPFTFGGGTKLEIK
notes: also called 23E12 (positive clone supernatant)
binds: [1] | Mouse-TrKA protein | [2] | [3] | [4]

B2: mouse monoclonal antibody produced by hybridoma clone 2008 (antibody, V domains shown)
VH: EVLLQQSGPELVKPGASMKISCKASVYSFTAYTMNWVKQSHGKNLEWIGLINPHNGGTRYNQKFKGKATLTLDKSSSTAYMDLLSLTSEDSAVYYCAISRYGSSSFYFDVWGAGTTVAVSS
VL: QIVLSQSPAILSASPGEKVTMTCRASSSISYMHWYQQKPGSSPKPWISATSNLASGVPARFSGSGSGTSYSLTISGVEAEDAATYYCQQWSSNPPTFGGGTNLEIK
binds: [2] | [3] | [4]

B3: 2008 chimeric antibody (antibody, human IgG4 S228P, kappa, F234A L235A, V domains shown)
VH: EVLLQQSGPELVKPGASMKISCKASVYSFTAYTMNWVKQSHGKNLEWIGLINPHNGGTRYNQKFKGKATLTLDKSSSTAYMDLLSLTSEDSAVYYCAISRYGSSSFYFDVWGAGTTVAVSS
VL: QIVLSQSPAILSASPGEKVTMTCRASSSISYMHWYQQKPGSSPKPWISATSNLASGVPARFSGSGSGTSYSLTISGVEAEDAATYYCQQWSSNPPTFGGGTNLEIKR
notes: also called 20C8
binds: [5] | [6] | [7]

B4: mouse monoclonal antibody produced by hybridoma clone 22D12 (antibody, V domains shown)
VH: EVQLQQSGPELVKPGASMKISCKASGYSITGYTMNWVKQSHGKNLEWIGLVNPYNGGTSYNQKFKGKATLTVDKSSSTAYMELLSLKSEDSAVYYCAISRYGSESWYFDVWGAGTTVTVSS
VL: QIVLSQSPAILSASPGEKVTMTCRATSSVSYMYWYQQKPGSSPKPWIYATSNLASGVPARFSGSGSGTSYSLTISRVEAEDAATYYCQQWSSNPPTFGGGTKLEKK
notes: also called 22D12 (positive clone supernatant)
binds: [2] | [3] | [4]

B5: mouse monoclonal antibody produced by hybridoma clone 4H4 (antibody, V domains shown)
VH: EVQLQQSGPELVKPGASMKISCKASGYSFTGYTMNWVKQSHGKNLEWIGLINPYNGGTRYNQKFKGKATLTVDKSSSTAYMELLSLTSEDSAVYYCASSSYRNDGNWYFDVWGAGTTVTVSS
VL: DIVMTQSPAIMSASPGEKVTMTCSASSSVSYMHWYQQKSGTSPKRWIYDTSKLASGVPARFSGSGSGTSYSLTISSMETEDAATYYCQQWSSNPPTFGGGTKLELK
notes: also called 4H4 (positive clone supernatant)
binds: [2] | [3] | [4]

B6: mouse monoclonal antibody produced by hybridoma clone 15D4 (antibody, V domains shown)
VH: QVQLQQSGAELMKPGASVKISCKATGYTFSSYWIEWVKQRPGHGLEWLGEFLPRSGKTNYNEEFRGKATFTADTSSNTAYMQLSSLTSEDSAVYYCARTDPPYFGVWGAGTMVAVSS
VL: QIVLTQSPPIMSASPGEKVTMTCSASSNISYMHWYQQKSGTSPKRWIYDTSKLASGVPARFSGSGSGTSYSLTISSMEAEDAATYYCQQWSSVPLTFGAGTKLEIK
notes: also called 15D4 (positive clone supernatant)
binds: [1] | Mouse-TrKA protein | [2] | [3] | [4]

B7: 4H4 chimeric antibody (antibody, human IgG4 S228P, kappa, F234A L235A, V domains shown)
VH: EVQLQQSGPELVKPGASMKISCKASGYSFTGYTMNWVKQSHGKNLEWIGLINPYNGGTRYNQKFKGKATLTVDKSSSTAYMELLSLTSEDSAVYYCASSSYRNDGNWYFDVWGAGTTVTVSS
VL: DIVMTQSPAIMSASPGEKVTMTCSASSSVSYMHWYQQKSGTSPKRWIYDTSKLASGVPARFSGSGSGTSYSLTISSMETEDAATYYCQQWSSNPPTFGGGTKLELKR
notes: expressed in CHO cells
binds: [5] | [6] | [7]

B8: mouse monoclonal antibody produced by hybridoma clone 27H3 (antibody, V domains shown)
VH: QVQLQQSGAELMKPGASVKISCKTTGYRFSSYWIEWVKQRPGHGLEWLGEILPGRGIINYNENFRGKATFTADTSSNTAYVQLSSLTSEDSAVYFCARTDPPYFGVWGAGTTVTVSS
VL: QAVVTQESALTTSPGETVTLTCRSSTGAVTISNYANWVQEKPDHLFTGLIGGTNNRPPGVPARFSGSLIGDKAALTITGAQTEDEAIYFCVLWYSNHWVFGGGTKLTVL
notes: also called 27H3 (positive clone supernatant)
binds: [1] | Mouse-TrKA protein | [2] | [3] | [4]

B9: 27H3 chimeric antibody (antibody, human IgG4 S228P, kappa, F234A L235A, V domains shown)
VH: QVQLQQSGAELMKPGASVKISCKTTGYRFSSYWIEWVKQRPGHGLEWLGEILPGRGIINYNENFRGKATFTADTSSNTAYVQLSSLTSEDSAVYFCARTDPPYFGVWGAGTTVTVSS
VL: QAVVTQESALTTSPGETVTLTCRSSTGAVTISNYANWVQEKPDHLFTGLIGGTNNRPPGVPARFSGSLIGDKAALTITGAQTEDEAIYFCVLWYSNHWVFGGGTKLTVLR
notes: expressed in CHO cells
binds: [5] | [6] | [7]

B10: mouse monoclonal antibody produced by hybridoma clone 21E5 (antibody, V domains shown)
VH: QVQLQQSGAELMKPGASMKISCKATGYTFSTYWIEWVKQRPGHGLEWIGENLPGRHITNYNEKFKGKATFTADTSSNTAYMQLSSLTSEDSAVYYCARGRGTYYFDYWGQGTPLTVSS
VL: DIVMTQAAFSTPVTLGTSASISCRSSQSLLHSNGITYLYWYLQKPGQSPQLLIYQMSNLASGVPDRFSSSGSGTDFTLRISRVEAEDVGVYYCAQNLEFPFTFGSGTKLEIK
notes: also called 21E5 (positive clone supernatant)
binds: [1] | Mouse-TrKA protein | [2] | [3] | [4]

B11: 21E5 chimeric antibody (antibody, human IgG4 S228P, kappa, F234A L235A, V domains shown)
VH: QVQLQQSGAELMKPGASMKISCKATGYTFSTYWIEWVKQRPGHGLEWIGENLPGRHITNYNEKFKGKATFTADTSSNTAYMQLSSLTSEDSAVYYCARGRGTYYFDYWGQGTPLTVSS
VL: DIVMTQAAFSTPVTLGTSASISCRSSQSLLHSNGITYLYWYLQKPGQSPQLLIYQMSNLASGVPDRFSSSGSGTDFTLRISRVEAEDVGVYYCAQNLEFPFTFGSGTKLEIKR
notes: expressed in CHO cells
binds: [5] | [8] | [6] | [9] | [7]

B12: mouse monoclonal antibody produced by hybridoma clone 2A5 (antibody, V domains shown)
VH: EVQLQQSGPELVKPGASMKISCKASGYSFTGYTMNWVKQSHGKNLEWIGLINPYNGGTNYNQKFKGKATLTVDKSSSTAYMELLSLTSEDSAVYYCAFSYYGSRGFYFDYWGQGTTLTVSS
VL: QIVLTQSPALMSASPGEKVTMTCSATSSVSYIYWYQQKPRSSPKPWIYLTSNLASGVPARFSGSGSGTSYSLTISSMEAEDAATYYCQQWSSNPPTFGGGTKLEIK
notes: also called 2A5 (positive clone supernatant)
binds: [2] | [3] | [4]

B13: 2A5 chimeric antibody (antibody, human IgG4 S228P, kappa, F234A L235A, V domains shown)
VH: EVQLQQSGPELVKPGASMKISCKASGYSFTGYTMNWVKQSHGKNLEWIGLINPYNGGTNYNQKFKGKATLTVDKSSSTAYMELLSLTSEDSAVYYCAFSYYGSRGFYFDYWGQGTTLTVSS
VL: QIVLTQSPALMSASPGEKVTMTCSATSSVSYIYWYQQKPRSSPKPWIYLTSNLASGVPARFSGSGSGTSYSLTISSMEAEDAATYYCQQWSSNPPTFGGGTKLEIKR
notes: expressed in CHO cells
binds: [5] | [6] | [7]

B14: mouse monoclonal antibody produced by hybridoma clone 1B9 (antibody, V domains shown)
VH: QVHLQQSGAELMKPGASVKISCKATGYTFNIYWIDWVKQRPGHGLEWIGEILPGSGNTHYNENFKGKATMTADTSSNTAYMQLTSLTSEDSAVYYCARTDGRGYFDYWGQGTTLTVSS
VL: DIVLTQSPASLVVSLGQRATISCRTSKSVSSSAYSYMHWYQQKPGQPPKVLIYLASNLESGVPARFSGSGSGTDFTLNIHPVEEEDAATYYCQHSRELPFTFGSGTKLEIK
notes: also called 1B9 (positive clone supernatant)
binds: [2] | [3] | [4]

B15: 1B9 chimeric antibody (antibody, human IgG4 S228P, kappa, F234A L235A, V domains shown)
VH: QVHLQQSGAELMKPGASVKISCKATGYTFNIYWIDWVKQRPGHGLEWIGEILPGSGNTHYNENFKGKATMTADTSSNTAYMQLTSLTSEDSAVYYCARTDGRGYFDYWGQGTTLTVSS
VL: DIVLTQSPASLVVSLGQRATISCRTSKSVSSSAYSYMHWYQQKPGQPPKVLIYLASNLESGVPARFSGSGSGTDFTLNIHPVEEEDAATYYCQHSRELPFTFGSGTKLEIKR
notes: expressed in CHO cells
binds: [5] | [6] | [7]

Source: patent US20220204630A1 (SUNSHINE LAKE PHARMA, published 2022)
